This passage reports binding results from publication PMC5513735.

Results are given in words; binding and its absence hold for the method and conditions named. Binding calls can cover weak binding; strength is not graded here.

The target of this test is T1, hypothetical protein SP_1876 (Streptococcus pneumoniae) (UniProt Q97NX5).
T1 sequence: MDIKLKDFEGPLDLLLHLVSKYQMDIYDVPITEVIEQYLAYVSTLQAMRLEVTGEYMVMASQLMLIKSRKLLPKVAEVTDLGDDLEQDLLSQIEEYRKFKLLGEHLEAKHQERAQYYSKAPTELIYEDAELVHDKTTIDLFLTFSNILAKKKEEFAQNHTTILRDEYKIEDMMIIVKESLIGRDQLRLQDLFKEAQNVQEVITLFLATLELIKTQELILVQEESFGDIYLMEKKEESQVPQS
Briefly: two-hybrid; yeast two-hybrid screens of S. pneumoniae ORFs: Gal4-based (individual baits mated with a pooled prey library, selection on SD -Leu -Trp -His with 0.1 mM 3-AT, 30°C) and LexA-based (hypothetical-protein BD clones against an AD array, two-phased pooled mating); which system found a given pair is not given.

Consider “SP_1247, Chromosome segregation protein (from UniProt A0A0H2UQ93)”, for which the binding entry is reported as “binds”.
